Measurements reported in PubChem BioAssay AID1159596 (NIAID, 2016)
Shown is one part, drawn at random, of 756 reagents. In the full data, 143 (19%) are marked active. 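Active means the reporter moved past about ±1.5 in either direction; scores are per single siRNA, not per gene; peptidoglycan dose not given.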 The record does not give: the amount of reagent.

Test: 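Genes whose silencing alters the TNF reporter response of macrophage-like cells to peptidoglycan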 (primary screen)
Cell system: human THP1 B5 monocytic reporter cells made macrophage-like with PMA
Reagent: single siRNA against human genes
Time to read-out: assayed 48 to 72 hours after siRNA transfection; peptidoglycan stimulation lasted 4 hours
Challenge: Staphylococcus aureus peptidoglycan for 4 hours; dose not given
Measured: 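TNF-alpha promoter firefly/renilla luciferase ratio after 4 h s. aureus peptidoglycan; plate median/MAD scaled, robust z versus negative control wells, mean of replicates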
Scale: TNF reporter z-score: higher = stronger TNF promoter reporter response to peptidoglycan
Hit rule: In these data the active calls have TNF reporter z-score, replicate mean at about -1.5 or lower, or at about 1.5 or higher
Calls: active = reporter shifted beyond cut (either direction); inactive = reporter near control level

For NFKBIA [SID303070630], how do the results read?
TNF reporter z-score, replicate mean: -1.17; Call: inactive

Which result is listed for NFKBIA [SID303070631]?
TNF reporter z-score, replicate mean: 0.161; Call: inactive

What is on record for NFKBIA [SID303070632]?
TNF reporter z-score, replicate mean: 1.43; Call: inactive

With NFKBIA [SID303070633], how do the results read?
TNF reporter z-score, replicate mean: -0.808; Call: inactive

With NFKBIA [SID303070634], what was measured?
TNF reporter z-score, replicate mean: -0.32; Call: inactive

With NFKBIA [SID303070635], what was measured?
TNF reporter z-score, replicate mean: -0.997; Call: inactive

What did the screen give for ATF2 [SID303071014]?
TNF reporter z-score, replicate mean: -1.53; Call: active

What did the screen give for ATF2 [SID303071015]?
TNF reporter z-score, replicate mean: -0.169; Call: inactive

How did the screen score ATF2 [SID303071016]?
TNF reporter z-score, replicate mean: -0.654; Call: inactive

What is on record for ATF2 [SID303071017]?
TNF reporter z-score, replicate mean: -0.269; Call: inactive

For ATF2 [SID303071018], what was measured?
TNF reporter z-score, replicate mean: -0.718; Call: inactive

What did the screen give for ATF2 [SID303071019]?
TNF reporter z-score, replicate mean: -2.32; Call: active

With PIK3CB [SID303070894], what was measured?
TNF reporter z-score, replicate mean: -2.22; Call: active

For PIK3CB [SID303070895], what does the deposit list?
TNF reporter z-score, replicate mean: -0.795; Call: inactive

With PIK3CB [SID303070896], what does the deposit list?
TNF reporter z-score, replicate mean: -0.726; Call: inactive

What is on record for PIK3CB [SID303070897]?
TNF reporter z-score, replicate mean: -0.51; Call: inactive

With PIK3CB [SID303070898], how do the results read?
TNF reporter z-score, replicate mean: 0.374; Call: inactive

For PIK3CB [SID303070899], what was measured?
TNF reporter z-score, replicate mean: -0.0554; Call: inactive

With IFNB1 [SID303071062], what does the deposit list?
TNF reporter z-score, replicate mean: -1.61; Call: active

How did the screen score IFNB1 [SID303071063]?
TNF reporter z-score, replicate mean: -0.152; Call: inactive

For IFNB1 [SID303071064], what was measured?
TNF reporter z-score, replicate mean: -0.212; Call: inactive

Which result is listed for IFNB1 [SID303071065]?
TNF reporter z-score, replicate mean: -0.747; Call: inactive

What did the screen give for IFNB1 [SID303071066]?
TNF reporter z-score, replicate mean: -0.587; Call: inactive

How did the screen score IFNB1 [SID303071067]?
TNF reporter z-score, replicate mean: -1.9; Call: active

Records above called active, once more:
ATF2 [SID303071014] → TNF reporter z-score, replicate mean = -1.53; Call = active
ATF2 [SID303071019] → TNF reporter z-score, replicate mean = -2.32; Call = active
PIK3CB [SID303070894] → TNF reporter z-score, replicate mean = -2.22; Call = active
IFNB1 [SID303071062] → TNF reporter z-score, replicate mean = -1.61; Call = active
IFNB1 [SID303071067] → TNF reporter z-score, replicate mean = -1.9; Call = active
